# Where a name gives a salt, the structure may show the parent alone. The list shows a part of the results. Repeats are few or missing, and single values can be far off.
# Test system: Reh
# Test: S-phase gammaH2AX median, Z-score vs plate median (drug alone); higher = more S-phase DNA damage
# Settings: MK1775 concentration 0 nM; 10 µM; 4 h
row,SMILES,S-phase gammaH2AX median (Z-score)
1,"CC(O)C(O)[C@H]1CNc2nc(N)[nH]c(=O)c2N1 (stereo partly drawn) [(6R)-5,6,7,8-Tetrahydro-L-biopterin hydrochloride]",-0.113
2,NC(=O)C1=CN(C2OC(COP(=O)(O)OP(=O)(O)OC[C@H]3O[C@@H](n4cnc5c(N)ncnc54)C(OP(=O)(O)O)[C@H]3O)C(O)C2O)C=CC1 (stereo partly drawn) [NADPH tetrasodium],-0.0615
3,CC1=C(/C=C/C(C)=C/C=C/C(C)=C/C(=O)O)C(C)(C)CCC1 [Retinoic acid],0.0497
4,CC1=C(C(=O)O)N2C(=O)[C@@H](NC(=O)[C@H](N)C3=CCC=CC3)[C@H]2SC1 [Cephradine],-0.00971
5,"NC(=O)CNCCC(c1ccccc1)c1ccccc1 [N-(3,3-Diphenylpropyl)glycinamide]",0.0661
6,O=C(O)c1ccc(-c2c[nH]c3ncc(-c4ccccc4)cc23)cc1C1CCCC1,-0.0561
7,CN1CCc2cc(Cl)c(O)cc2[C@@H](c2ccccc2)C1,-0.0504
8,Nc1ccc(N2C(=O)c3ccccc3C2=O)c(Cl)c1 [N-(4-Amino-2-chlorophenyl)phthalimide],-0.0854
9,C[C@]12CC[C@@H]3c4ccc(O)cc4CC[C@H]3[C@@H]1CC[C@@H]2O [beta-Estradiol],0.101
10,C[C@]12CC[C@@H]3c4ccc(O)cc4CC[C@H]3[C@@H]1CC[C@@H]2O [Estradiol],-0.0174
11,CN(C)CCOC(c1ccccc1)c1ccccc1 [Diphenhydramine hydrochloride],0.0063
12,OC(CN1CCC(Cc2ccc(F)cc2)CC1)c1ccc(Cl)cc1 (stereo not drawn) [Eliprodil],-0.0346
13,CN(C)CC/C=C1/c2ccccc2Sc2ccc(Cl)cc21 [Chlorprothixene hydrochloride],0.0951
14,CC(=O)[C@H]1CC[C@H]2[C@@H]3CCC4=CC(=O)CC[C@]4(C)[C@H]3CC[C@]12C [Progesterone],0.00473
15,N=C(N)NC(=O)Cc1c(Cl)cccc1Cl [Guanfacine hydrochloride],0.236
16,CN1C[C@H](O)[C@@H](O)[C@H](O)[C@H]1CO [N-Methyl-1-deoxynojirimycin],0.00946
17,Nc1cccc2c1C(=O)N(C1CCC(=O)NC1=O)C2=O (stereo not drawn) [Pomalidomide],-0.0398
18,CC(=O)O[C@@]12CO[C@@H]1C[C@H](O)[C@@]1(C)C(=O)[C@H](O)C3=C(C)[C@@H](OC(=O)[C@H](O)[C@@H](NC(=O)OC(C)(C)C)c4ccccc4)C[C@@](O)([C@@H](OC(=O)c4ccccc4)[C@H]21)C3(C)C [Docetaxel (Taxotere)],-0.0491
19,COc1ccccc1N1CCN(CCN(C(=O)C2CCCCC2)c2ccccn2)CC1,0.0868
20,C=CC1=C(C)c2cc3[nH]c(cc4nc(cc5[nH]c(cc1n2)c(C)c5CCC(=O)O)C(CCC(=O)O)=C4C)c(C)c3C=C [Protoporphyrin IX disodium],1.04
21,CO[C@H]1C[C@@H]2CC[C@@H](C)[C@@](O)(O2)C(=O)C(=O)N2CCCC[C@H]2C(=O)O[C@H]([C@H](C)C[C@@H]2CC[C@@H](OCCO)[C@H](OC)C2)CC(=O)[C@H](C)/C=C(\C)[C@@H](O)[C@@H](OC)C(=O)[C@H](C)C[C@H](C)/C=C/C=C/C=C/1C [Everolimus (RAD001)],-0.0576
22,C[n+]1cc2c3c(ccc2c2ccc4cc5c(cc4c21)OCO5)OCO3 [Sanguinarine chloride],8.84
23,Nc1ncnc2c1ncn2[C@@H]1O[C@H](CO)[C@@H](O)[C@H]1O [Adenosine],-0.0369
24,O=c1cc(-c2cccc3c2Sc2ccccc2S3)oc(N2CCOCC2)c1,-0.0754
25,Fc1ccc(C(c2ccc(F)cc2)N2CCN(C/C=C/c3ccccc3)CC2)cc1 [Flunarizine dihydrochloride],-0.0882

# A second format for some results above.
row	SMILES	S-phase gammaH2AX median (Z-score)
16	CN1C[C@H](O)[C@@H](O)[C@H](O)[C@H]1CO [N-Methyl-1-deoxynojirimycin]	0.00946
17	Nc1cccc2c1C(=O)N(C1CCC(=O)NC1=O)C2=O (stereo not drawn) [Pomalidomide]	-0.0398
18	CC(=O)O[C@@]12CO[C@@H]1C[C@H](O)[C@@]1(C)C(=O)[C@H](O)C3=C(C)[C@@H](OC(=O)[C@H](O)[C@@H](NC(=O)OC(C)(C)C)c4ccccc4)C[C@@](O)([C@@H](OC(=O)c4ccccc4)[C@H]21)C3(C)C [Docetaxel (Taxotere)]	-0.0491
19	COc1ccccc1N1CCN(CCN(C(=O)C2CCCCC2)c2ccccn2)CC1	0.0868

# (further entries)

row,SMILES,S-phase gammaH2AX median (Z-score)
1,N#Cc1c(O)c2c(-c3ccc(-c4ccccc4O)cc3)csc2[nH]c1=O,0.0785
2,COc1cccc2c1C(=O)c1c(O)c3c(c(O)c1C2=O)C[C@@](O)(C(=O)CO)C[C@@H]3O[C@H]1C[C@H](N)[C@H](O)[C@H](C)O1 [Doxorubicin (Adriamycin)],1.05
3,Cn1cnc2c(NCc3ccccc3)nc(NCCO)nc21 [Olomoucine],-0.0993
4,Nc1nc(Cl)nc2c1ncn2[C@H]1C[C@H](O)[C@@H](CO)O1 [Cladribine],2.48
5,COc1cccc2c1[C@@H]1CN(CCCCn3c(=O)[nH]c4c(sc5ncc(-c6ccccc6)nc54)c3=O)C[C@@H]1CO2 [Fiduxosin hydrochloride],-0.387
6,CCN1CCC[C@H]1CNC(=O)c1c(OC)ccc(I)c1O,0.0535
7,C[C@]12CCC(=O)C=C1CC[C@@H]1[C@@H]2[C@@H](O)C[C@@]2(C)[C@H]1CC[C@]2(O)C(=O)CO [Hydrocortisone],0.0252
8,C[C@]12CCC(=O)C=C1CC[C@@H]1[C@@H]2[C@@H](O)C[C@@]2(C)[C@H]1CC[C@]2(O)C(=O)CO [Hydrocortisone (Cortisol)],0.0437
9,CNCCCC1c2ccccc2C=Cc2ccccc21 [Protriptyline hydrochloride],0.116
10,S=C(S)OC1CC2CC1C1CCCC21 [D-609 potassium],-0.327
11,Oc1ncnc2[nH]ncc12 [Allopurinol],0.0583
12,CCC(=O)N1CCN(c2ccc(-n3c(=O)ccc4cnc5ccc(-c6cnc7ccccc7c6)cc5c43)cc2C(F)(F)F)CC1 [Torin 1],-0.222
13,C[N+]1(CCCCC[N+]2(C)CCCC2)CCCC1 [Pentolinium di[L(+)-tartrate]],-0.466
14,O=C(Nc1ccccc1)c1cc([N+](=O)[O-])ccc1Cl,-0.0899
15,COc1ccc(CCN(C)CCCC(C#N)(c2ccc(OC)c(OC)c2)C(C)C)cc1OC (stereo not drawn) [(?)-Verapamil hydrochloride],-0.627
16,Cc1cc(C(C)(C)C)c(O)c(C)c1CC1=NCCN1 [Oxymetazoline hydrochloride],0.17
17,O=c1cc(N2CCOCC2)oc2c(-c3cccc4c3sc3ccccc34)cccc12,-0.113
18,CC(C)(C(=O)O)c1ccc(C(O)CCCN2CCC(C(O)(c3ccccc3)c3ccccc3)CC2)cc1 (stereo not drawn) [Fexofenadine hydrochloride],0.0535
19,CC(N)=NCCCC[C@H](N)C(=O)O [L-N6-(1-Iminoethyl)lysine hydrochloride],0.101
20,O=C(O)CCC(NC(=O)c1ccccc1C(=O)O)C(=O)O [Phthalamoyl-L-glutamic acid trisodium],-0.052
21,Cc1ccc(O)c(N=Nc2ccccc2)n1,-0.254
22,CSc1ccc2c(c1)C(N1CCN(C)CC1)Cc1ccccc1S2 (stereo not drawn) [Methiothepin mesylate],-0.147
23,CN1CCc2cc(O)c(O)cc2C(c2ccccc2)C1 (stereo not drawn),-0.0868
24,CCCCCC[C@@H]([C@@H](C)O)n1cnc2c(N)ncnc21 [erythro-9-(2-Hydroxy-3-nonyl)adenine hydrochloride],0.0535
25,CC[N+](C)(C)Cc1ccccc1Br [Bretylium tosylate],-0.00194

# Looked up one by one from the entries so far:
row,SMILES,S-phase gammaH2AX median (Z-score)
17,Nc1cccc2c1C(=O)N(C1CCC(=O)NC1=O)C2=O (stereo not drawn) [Pomalidomide],-0.0398
2,NC(=O)C1=CN(C2OC(COP(=O)(O)OP(=O)(O)OC[C@H]3O[C@@H](n4cnc5c(N)ncnc54)C(OP(=O)(O)O)[C@H]3O)C(O)C2O)C=CC1 (stereo partly drawn) [NADPH tetrasodium],-0.0615

# Following part

row,SMILES,S-phase gammaH2AX median (Z-score)
1,C[N+](C)(C)CCCCCC[N+](C)(C)C [Hexamethonium bromide],0.167
2,C[N+](C)(C)CCCCCC[N+](C)(C)C [Hexamethonium dichloride],0.0661
3,CN1C(C)(C)CCCC1(C)C [Pempidine tartrate],-0.052
4,"Cc1cn(C2C=CC(CO)O2)c(=O)[nH]c1=O (stereo not drawn) [2',3'-didehydro-3'-deoxythymidine]",0.532
5,CC(CCc1ccccc1)NCC(O)c1ccc(O)c(C(N)=O)c1 (stereo not drawn) [Labetalol hydrochloride],-0.0882
6,O=C(O)c1cccnc1Nc1cccc(C(F)(F)F)c1 [Niflumic acid],0.0426
7,Cc1oncc1C(=O)Nc1ccc(C(F)(F)F)cc1 [Leflunomide],0.0922
8,O=C(CCc1ccc(O)cc1)c1c(O)cc(O)cc1O [Phloretin (Dihydronaringenin)],-0.0298
9,O=C(CCc1ccc(O)cc1)c1c(O)cc(O)cc1O [Phloretin],0.475
10,CC1(NC(=O)CBr)CCC(C(C)(C)NCC(O)COc2cccc3[nH]ccc23)CC1 (stereo not drawn) [(?)-Pindobind],0.0426
11,CNC[C@H](O)c1ccc(O)c(O)c1 [(-)-Epinephrine bitartrate],0.0693
12,CN1CCN(CCCN2c3ccccc3Sc3ccc(C(F)(F)F)cc32)CC1 [Trifluoperazine dihydrochloride],-0.521
13,CCc1cc(Nc2nccc(-c3c(-c4ccc(OC)c(C(=O)Nc5c(F)cccc5F)c4)nc4ccccn34)n2)c(OC)cc1N1CCC(N2CCN(S(C)(=O)=O)CC2)CC1,-0.08
14,"Nc1ccn([C@H]2CC[C@@H](CO)O2)c(=O)n1 [2',3'-dideoxycytidine]",1.11
15,CC(C)(C#N)c1cc(Cn2cncn2)cc(C(C)(C)C#N)c1 [Anastrozole],-0.0986
16,COc1cc2nccc(Oc3ccc(NC(=O)Nc4cc(C)on4)c(Cl)c3)c2cc1OC [Tivozanib (AV-951)],-0.123
17,CCCCCCCCCCCCCCC[C@H](O)[C@H](N)CO (racemic) [DL-erythro-Dihydrosphingosine],-0.00945
18,CN(C)CCOC(C)(c1ccccc1)c1ccccn1 (stereo not drawn) [Doxylamine succinate],0.0661
19,COc1cccc(-c2cc(=O)c3ccccc3o2)c1N,-0.0946
20,C[C@]1(O)C[C@@H](c2nc(-c3ccc4ccc(-c5ccccc5)nc4c3)c3c(N)nccn32)C1 [Linsitinib (OSI-906)],0.053
21,O=C(C1CCCCC1)N1CC(=O)N2CCc3ccccc3C2C1 (stereo not drawn) [Praziquantel],0.196
22,C(=C\c1ccccc1)/CN1CCN(C(c2ccccc2)c2ccccc2)CC1 [Cinnarizine],0.00777
23,COc1ccc2c(c1)c(CC(=O)O)c(C)n2C(=O)c1ccc(Cl)cc1 [Indomethacin],0.18

# Source: the supplement of paper PMC5355238
